Test results: publication PMC5432272

Biological target: Trichosanthin (Trichosanthes kirilowii Maximowicz)
Test: affinity purification with mass spectrometry; 50 μg TCS coupled to CNBr-activated Sepharose beads; HepG2 lysate (50 mM Tris-HCl pH 7.5, 150 mM NaCl, 1 mM EDTA, 1% NP-40), 4 °C, 2 hours; SDS-PAGE, silver staining, bands cut and analysed by LC-MS/MS; only the target purified

B1: GGA1 (Golgi-localized, γ-ear containing, Arf-binding protein 1) (protein, UniProt Q9UJY5 1-639)
chain: MEPAMEPETLEARINRATNPLNKELDWASINGFCEQLNEDFEGPPLATRLLAHKIQSPQEWEAIQALTVLETCMKSCGKRFHDEVGKFRFLNELIKVVSPKYLGSRTSEKVKNKILELLYSWTVGLPEEVKIAEAYQMLKKQGIVKSDPKLPDDTTFPLPPPRPKNVIFEDEEKSKMLARLLKSSHPEDLRAANKLIKEMVQEDQKRMEKISKRVNAIEEVNNNVKLLTEMVMSHSQGGAAAGSSEDLMKELYQRCERMRPTLFRLASDTEDNDEALAEILQANDNLTQVINLYKQLVRGEEVNGDATAGSIPGSTSALLDLSGLDLPPAGTTYPAMPTRPGEQASPEQPSASVSLLDDELMSLGLSDPTPPSGPSLDGTGWNSFQSSDATEPPAPALAQAPSMESRPPAQTSLPASSGLDDLDLLGKTLLQQSLPPESQQVRWEKQQPTPRLTLRDLQNKSSSCSSPSSSATSLLHTVSPEPPRPPQQPVPTELSLASITVPLESIKPSNILPVTVYDQHGFRILFHFARDPLPGRSDVLVVVVSMLSTAPQPIRNIVFQSAVPKVMKVKLQPPSGTELPAFNPIVHPSAITQVLLLANPQKEKVRLRYKLTFTMGDQTYNEMGDVDQFPPPETWGSL
Question: For B1, which binding is on record?
Answer: binds

B2: GGA3 (Golgi-localized, γ-ear containing, Arf-binding protein 3) (protein, UniProt Q9NZ52 1-723)
chain: MAEAEGESLESWLNKATNPSNRQEDWEYIIGFCDQINKELEGPQIAVRLLAHKIQSPQEWEALQALTVLEACMKNCGRRFHNEVGKFRFLNELIKVVSPKYLGDRVSEKVKTKVIELLYSWTMALPEEAKIKDAYHMLKRQGIVQSDPPIPVDRTLIPSPPPRPKNPVFDDEEKSKLLAKLLKSKNPDDLQEANKLIKSMVKEDEARIQKVTKRLHTLEEVNNNVRLLSEMLLHYSQEDSSDGDRELMKELFDQCENKRRTLFKLASETEDNDNSLGDILQASDNLSRVINSYKTIIEGQVINGEVATLTLPDSEGNSQCSNQGTLIDLAELDTTNSLSSVLAPAPTPPSSGIPILPPPPQASGPPRSRSSSQAEATLGPSSTSNALSWLDEELLCLGLADPAPNVPPKESAGNSQWHLLQREQSDLDFFSPRPGTAACGASDAPLLQPSAPSSSSSQAPLPPPFPAPVVPASVPAPSAGSSLFSTGVAPALAPKVEPAVPGHHGLALGNSALHHLDALDQLLEEAKVTSGLVKPTTSPLIPTTTPARPLLPFSTGPGSPLFQPLSFQSQGSPPKGPELSLASIHVPLESIKPSSALPVTAYDKNGFRILFHFAKECPPGRPDVLVVVVSMLNTAPLPVKSIVLQAAVPKSMKVKLQPPSGTELSPFSPIQPPAAITQVMLLANPLKEKVRLRYKLTFALGEQLSTEVGEVDQFPPVEQWGNL
Question: Which binding does the source give for B2 here?
Answer: binds

Results are given in words; binding and its absence hold for the method and conditions named. Binding seen in cells or lysates may run through a third protein. A yes stands for co-enrichment or nearness to the bait. Other partners may have been found.
